The assay is described as follows: qHTS Assay for Lipid Storage Modulators in Drosophila S3 Cells.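 For cell number change: cells counted by Cell Tracker Red CMTPX staining in the red channel.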 Conditions: BODIPY lipid droplet fluorescence, 18-24 h; for cell number change: measured here: cell count max response, cells fed with added oleic acid. From the text:
NIH Molecular Libraries Probe Production Centers Network [MLPCN] NIH Chemical Genomics Center [NCGC] MLPCN Grant: 1 R03 MH085686-01 Assay Submitter (PI): Beller, Mathias; Max-Planck-Institut fur Biophysikalische Chemie NCGC Assay Overview: Storing lipids as a reservoir for energy or the anabolism of elementary metabolites is a common feature of probably all cells and is conserved from bacteria to humans. The universal cellular lipid storage organelle is the so-called lipid storage droplet (LD). Although ubiquitous, LDs share a simple structure composed of a hydrophobic core that harbors the storage lipids, which is shielded by a droplet-specific phospholipid monolayer to which proteins are attached. The current model of LD biogenesis involves an incorporation of the lipid core into the membrane leaflets of the endoplasmic reticulum (ER) followed by a subsequent budding-like maturation of a LD, which ultimately pinches off. Once released, LD volume can increase by localized lipogenesis or fusion of existing droplet. Storage lipids are re-mobilized enzymatically by lipase activity. Lipase regulation in the adipocyte is heavily studied and involves multiple components including catecholamine signaling, the LD-associated proteins Perilipin and comparative gene identification (CGI-58) and at least two lipases named hormone sensitive lipase (HSL) and adipocyte triglyceride lipase (ATGL). LD regulation outside of the adipocyte is poorly understood and only few components are known. However, there is an urgent need to learn more about ectopic fat depots as mislocalized storage of lipids, for example in the liver or muscle, is an eminent health problem associated with insulin resistance or the metabolic syndrome. We developed a laser-scanning cytometer assay to enable 1,536-well screening and combined the results of the small molecules screen with an RNAi database based on lipid storage.
Triacsin C (Sigma-Aldrich T-4540), an inhibitor of long-chain fatty acyl CoA synthetase that blocks synthesis of triglycerides, was used as a positive control for lipid under-storage. A total of 23 nL of compound solution of different concentrations were transferred to the assay plates using a Kalypsys pin tool equipped with a 1,536-pin array containing 10-nL slotted pins (FP1S10, 0.457-mm diameter, 50.8 mm long; V&P Scientific). One microliter of oleic acid (400 uM) was added, and the plate was lidded with stainless steel rubber gasket lined lids containing pinholes. […] Fluorescence was detected by excitation of the fluorophores with a 488-nm laser on an Acumen Explorer (TTP Lab Tech). The total intensity in channel 2 (500-530 nm) reflected lipid droplet accumulation. Cells were detected using channel 3 (575-640 nm) with 5-um width and 100-um depth filters. The ratio of the number of objects in PMT channel 2 over the number of objects in PMT channel 3 was also calculated. Percent activity was computed relative to an internal control (100% inhibited lipid droplet deposition due to the presence of 20 uM Triacsin C), which was added to 32 wells/plate.
For orientation: qHTS replaces the single test concentration by a dilution series.

Where [1] appears, read: measured here: cell number channel AC50, cells fed with added oleic acid.
Setting [2] is: measured here: lipid fluorescence (Fed channel) AC50, cells fed with added oleic acid.

Some of the results follow. These are further read-outs of the screen, such as a control signal, another cell line or another target. No call is given for them. Most of these compounds were active or inconclusive in the main read-out, so they are no random draw. The note in brackets gives the kind of curve behind each potency; many fits are weak.

Broadly, the AC50 is the concentration giving half of the maximal activity seen. For the molecule `CC(C)C1CC(CCNCc2ccc(N(C)C)cc2)(c2ccccc2)CCO1` (centres undefined), the cell number change was -40.3%. Moreover, under setting [1], the half-maximal activity concentration (AC50) was 13 µM [falling, single point]. Further, the AC50 under setting [2] is 11.6 µM [falling, partial curve].

On to `COc1ccc(C)cc1NC(=O)Nc1ccc(C(=O)N2CCCC2)cc1`, for which the cell number change is -4.99%. For the same molecule, the AC50 under setting [2] is 0.651 µM [falling, full curve].

For `O=C(c1ccco1)n1nc(-c2ccco2)nc1SCc1ccccc1`, the cell number change amounted to 15.7%. Under setting [1], the AC50 was 0.731 µM [falling, full curve, poor fit]. The AC50 under setting [2] was 5.17 µM [falling, single point].

Turning to `CCOC(=O)C1CCCN(CC(=O)NC2CC2)C1` (centres undefined), the cell number change is -9.58%. Also, under setting [2], the AC50 was 0.082 µM [falling, full curve].

As for `Cc1nnc(SCCC(C)C)[nH]c1=O`, the cell number change is -1.99%. In addition, the AC50 under setting [2] is 0.00461 µM [falling, full curve].

On to `CCCn1c(SCCN2C(=O)c3ccccc3C2=O)n[nH]c1=O`, for which the cell number change worked out at 1.91%. Besides, the AC50 under setting [2] is 0.731 µM [falling, single point].

As for `COc1ccc(/C=C(\C#N)C(=O)OCC(=O)NCc2ccco2)cc1`, the cell number change is -6.16%. Further, under setting [2], the AC50 is 7.31 µM [falling, single point].

For the molecule `Cc1cccc(OCC(=O)Nc2ccc(S(=O)(=O)Nc3onc(C)c3C)cc2)c1C`, the cell number change worked out at 7.89%. For the same molecule, the AC50 under setting [2] was 0.1 µM [rising, full curve, poor fit].

As for `CC(=O)OCCNC(=O)c1cccnc1`, the cell number change is -3.47%. For the same molecule, under setting [2], the AC50 is 6.51 µM [falling, single point].

On to `COc1ccc(-c2ccc(SCC(=O)NC3CCCCC3)nn2)cc1OC`, for which the cell number change is -17.5%. Besides, the AC50 under setting [2] was 9.2 µM [falling, single point].

As to `N#CCCN(Cc1cccnc1)C(=O)Nc1ccccc1`, the cell number change stood at 11.1%. Also, the AC50 under setting [2] was 1.46 µM [rising, full curve].

As for `Cc1ccc(NC(=O)CSCC(=O)Nc2cc(Cl)ccc2N2CCN(C)CC2)cc1`, the AC50 under setting [2] was 32.6 µM [rising, single point].

On to `C=CCNC(=O)c1ccccc1NC(=O)c1ccccc1`, for which the cell number change came out at 41.6%. Besides, under setting [1], the AC50 is 0.82 µM [rising, full curve].

In the case of `Cc1ccccc1NC(=O)Cc1nc(COC(=O)c2cc([N+](=O)[O-])ccc2N)cs1`, the AC50 under setting [2] was 0.58 µM [falling, single point].

On to `COc1ccc(S(=O)(=O)N2CC(=O)Nc3ccccc32)cc1F`, for which the cell number change was -20.3%. The AC50 under setting [2] is 6.51 µM [falling, single point].

For the molecule `CC(C)CCN1CCN(CC#Cc2ccccc2)CC1CCO` (centres undefined), the cell number change was determined as 25.3%. Moreover, the AC50 under setting [2] was 23.1 µM [rising, single point].

For the molecule `CC1CCCCN1C(=O)CSc1nc2c(c(=O)n(C)c(=O)n2C)n1C` (centres undefined), the cell number change worked out at 23.5%. Moreover, the AC50 under setting [2] is 5.8 µM [falling, full curve].

For the molecule `O=C(Nc1ccc(S(=O)(=O)N2CCCCC2)cc1)c1cnccn1`, the cell number change turned out to be 13.1%. Further, the AC50 under setting [2] was 2.06 µM [rising, full curve, poor fit].

As to `COC(=O)C1C(=O)C=C(Nc2ccc(F)cc2F)CC1c1ccc(OC)cc1` (centres undefined), the cell number change was 22.9%. Moreover, the AC50 under setting [2] is 29.1 µM [rising, single point].

Consider `Cc1cccc(C)c1N(CC(=O)NCc1ccco1)C(=O)CNS(=O)(=O)c1ccc(F)cc1`, for which the cell number change is -2.56%. The AC50 under setting [1] is 0.326 µM [falling, single point].

`Cc1occc1C(=O)Nc1nnc(C2CCCCC2)s1`: the cell number change is -29.1%.

Regarding `CCOC(=O)C1=C(C)NC(=O)C(C(N)=O)C12CCCCC2` (centres undefined), the cell number change is -0.74%. Further, the AC50 under setting [2] was 0.0651 µM [falling, full curve, poor fit].

Regarding `O=C(COC(=O)c1cnccn1)Nc1cccc2ccccc12`, the cell number change is -0.176%. Under setting [2], the AC50 is 6.51 µM [rising, single point].

Turning to `Cc1ccccc1C(=O)NCC(=O)NNC(=O)c1cccc(Cl)c1`, the cell number change is -10.7%.

With `CC(C)CNC(=O)C1CCCN(S(=O)(=O)c2ccc(-n3cnnn3)cc2)C1` (centres undefined), the cell number change was 5.62%. Further, under setting [2], the AC50 is 9.2 µM [falling, single point].

On to `CCc1cccc(C)c1NC(=O)CN1C(=O)c2ccccc2S1(=O)=O`, for which the cell number change turned out to be 28.8%. Moreover, the AC50 under setting [2] is 29.1 µM [rising, single point].

On to `COc1cc(C(=O)N/C(=C/c2ccc(F)cc2)C(=O)NC(C(=O)O)c2ccccc2)cc(OC)c1OC` (centres undefined), for which the cell number change was -33.6%. For the same molecule, the AC50 under setting [1] was 8.2 µM [falling, partial curve, poor fit]. Further, under setting [2], the AC50 is 5.8 µM [falling, partial curve, poor fit].

As for `Cc1ccccc1NC(=O)NC1(C(=O)NCc2ccco2)CCCCC1`, the cell number change turned out to be 7.98%.

Regarding `O=C(Cn1cc2c(n1)CCCCC2)Nc1ccc(F)cc1F`, the cell number change came out at 30.8%. Under setting [1], the AC50 was 29.1 µM [rising, single point].

Regarding `O=C(COc1ccc(Cl)cc1)Nc1ccc2c(c1)nc1n2CCOC1`, the cell number change was 15.1%. Under setting [1], the AC50 was 6.51 µM [rising, single point]. Besides, the AC50 under setting [2] is 16.4 µM [rising, partial curve].

For the origin of these results see PubChem BioAssay AID2685 (National Center for Advancing Translational Sciences (NCATS), 2010).
